In the supplement of paper PMC10849652:
This is one part of the list.

By UniProt entry, the sequences of proteins in these tests, tags left out. Where a name states a change or a piece, a line headed by the entry shows the natural chain unless it says otherwise.
UniProt Q02224: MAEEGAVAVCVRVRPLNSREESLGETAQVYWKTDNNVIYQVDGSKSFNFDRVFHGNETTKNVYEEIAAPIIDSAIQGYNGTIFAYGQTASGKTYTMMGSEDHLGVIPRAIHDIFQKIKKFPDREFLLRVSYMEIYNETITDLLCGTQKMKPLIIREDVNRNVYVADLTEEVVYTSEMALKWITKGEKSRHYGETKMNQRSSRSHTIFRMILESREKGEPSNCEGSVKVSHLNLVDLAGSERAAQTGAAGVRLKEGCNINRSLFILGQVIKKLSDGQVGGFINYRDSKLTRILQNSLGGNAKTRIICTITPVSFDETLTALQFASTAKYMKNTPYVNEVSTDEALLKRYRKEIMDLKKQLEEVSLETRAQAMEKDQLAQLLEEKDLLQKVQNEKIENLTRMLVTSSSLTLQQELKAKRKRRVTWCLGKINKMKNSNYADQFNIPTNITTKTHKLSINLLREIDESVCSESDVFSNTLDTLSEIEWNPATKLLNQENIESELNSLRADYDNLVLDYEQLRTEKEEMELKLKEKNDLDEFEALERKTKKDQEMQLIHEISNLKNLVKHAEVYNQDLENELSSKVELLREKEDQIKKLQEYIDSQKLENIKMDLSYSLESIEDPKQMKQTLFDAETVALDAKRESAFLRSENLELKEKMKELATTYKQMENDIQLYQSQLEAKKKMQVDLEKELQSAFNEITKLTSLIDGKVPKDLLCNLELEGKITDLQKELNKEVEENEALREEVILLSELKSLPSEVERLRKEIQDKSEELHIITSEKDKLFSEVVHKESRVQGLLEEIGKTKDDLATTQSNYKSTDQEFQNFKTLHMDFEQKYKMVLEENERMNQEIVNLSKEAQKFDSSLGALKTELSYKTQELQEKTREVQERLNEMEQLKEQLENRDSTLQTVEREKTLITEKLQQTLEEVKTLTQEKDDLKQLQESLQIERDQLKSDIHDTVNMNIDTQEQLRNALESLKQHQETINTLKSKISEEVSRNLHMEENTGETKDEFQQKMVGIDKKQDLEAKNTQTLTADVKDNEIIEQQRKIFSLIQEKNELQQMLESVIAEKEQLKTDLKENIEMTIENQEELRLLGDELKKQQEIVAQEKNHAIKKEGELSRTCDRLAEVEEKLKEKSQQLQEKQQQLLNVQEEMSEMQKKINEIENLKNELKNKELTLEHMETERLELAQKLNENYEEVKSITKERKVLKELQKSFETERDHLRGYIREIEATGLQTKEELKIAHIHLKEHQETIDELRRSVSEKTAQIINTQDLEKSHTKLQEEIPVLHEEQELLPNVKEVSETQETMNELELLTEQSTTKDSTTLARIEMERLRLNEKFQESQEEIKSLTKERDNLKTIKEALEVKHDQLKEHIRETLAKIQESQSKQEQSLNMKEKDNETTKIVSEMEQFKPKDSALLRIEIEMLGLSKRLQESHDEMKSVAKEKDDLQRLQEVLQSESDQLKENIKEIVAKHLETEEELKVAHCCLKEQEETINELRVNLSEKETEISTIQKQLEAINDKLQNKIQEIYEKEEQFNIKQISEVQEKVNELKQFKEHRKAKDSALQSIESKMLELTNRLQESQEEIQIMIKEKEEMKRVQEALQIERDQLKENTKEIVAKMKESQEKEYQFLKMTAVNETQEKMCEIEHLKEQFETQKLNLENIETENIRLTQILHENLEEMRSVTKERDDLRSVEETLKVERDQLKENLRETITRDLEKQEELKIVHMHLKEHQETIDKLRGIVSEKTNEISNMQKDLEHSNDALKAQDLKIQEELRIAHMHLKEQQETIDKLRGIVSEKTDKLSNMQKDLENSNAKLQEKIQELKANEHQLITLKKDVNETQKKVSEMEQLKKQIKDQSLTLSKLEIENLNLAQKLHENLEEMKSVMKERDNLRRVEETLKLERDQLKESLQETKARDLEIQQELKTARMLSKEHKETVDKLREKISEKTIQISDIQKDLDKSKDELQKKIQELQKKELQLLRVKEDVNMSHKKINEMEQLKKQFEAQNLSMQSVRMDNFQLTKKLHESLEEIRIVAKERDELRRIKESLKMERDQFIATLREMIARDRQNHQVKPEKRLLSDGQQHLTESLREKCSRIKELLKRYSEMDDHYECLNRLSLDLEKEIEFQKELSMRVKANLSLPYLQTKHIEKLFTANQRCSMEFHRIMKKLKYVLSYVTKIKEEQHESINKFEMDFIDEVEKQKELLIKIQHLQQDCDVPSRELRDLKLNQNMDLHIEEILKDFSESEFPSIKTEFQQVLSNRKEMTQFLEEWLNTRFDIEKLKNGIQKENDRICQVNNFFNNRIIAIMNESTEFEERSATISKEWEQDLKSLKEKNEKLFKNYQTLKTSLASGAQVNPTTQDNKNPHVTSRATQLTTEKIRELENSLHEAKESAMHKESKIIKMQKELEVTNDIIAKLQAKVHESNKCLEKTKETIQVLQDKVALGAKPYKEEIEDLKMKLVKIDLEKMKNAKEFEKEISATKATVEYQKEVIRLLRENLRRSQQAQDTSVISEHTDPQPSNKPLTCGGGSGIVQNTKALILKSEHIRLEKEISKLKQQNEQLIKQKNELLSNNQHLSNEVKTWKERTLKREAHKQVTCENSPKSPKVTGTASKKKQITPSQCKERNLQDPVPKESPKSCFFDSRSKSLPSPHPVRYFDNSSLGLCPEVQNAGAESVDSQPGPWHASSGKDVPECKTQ
UniProt P49336: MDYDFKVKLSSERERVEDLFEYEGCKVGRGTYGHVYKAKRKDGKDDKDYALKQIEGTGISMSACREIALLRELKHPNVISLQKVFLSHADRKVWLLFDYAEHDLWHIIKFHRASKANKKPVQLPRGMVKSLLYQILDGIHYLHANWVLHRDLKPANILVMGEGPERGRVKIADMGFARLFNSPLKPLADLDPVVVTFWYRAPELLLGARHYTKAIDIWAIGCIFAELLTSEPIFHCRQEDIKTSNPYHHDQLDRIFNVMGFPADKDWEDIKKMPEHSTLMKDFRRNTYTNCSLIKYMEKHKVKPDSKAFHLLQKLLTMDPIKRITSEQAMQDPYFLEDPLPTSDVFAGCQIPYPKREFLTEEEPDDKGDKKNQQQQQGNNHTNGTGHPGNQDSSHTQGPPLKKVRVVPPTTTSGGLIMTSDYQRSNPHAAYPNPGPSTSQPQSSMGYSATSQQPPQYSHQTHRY
UniProt O14519: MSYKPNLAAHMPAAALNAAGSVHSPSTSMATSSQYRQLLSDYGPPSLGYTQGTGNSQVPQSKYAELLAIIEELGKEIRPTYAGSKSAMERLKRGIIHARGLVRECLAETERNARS
UniProt Q6ZMG9: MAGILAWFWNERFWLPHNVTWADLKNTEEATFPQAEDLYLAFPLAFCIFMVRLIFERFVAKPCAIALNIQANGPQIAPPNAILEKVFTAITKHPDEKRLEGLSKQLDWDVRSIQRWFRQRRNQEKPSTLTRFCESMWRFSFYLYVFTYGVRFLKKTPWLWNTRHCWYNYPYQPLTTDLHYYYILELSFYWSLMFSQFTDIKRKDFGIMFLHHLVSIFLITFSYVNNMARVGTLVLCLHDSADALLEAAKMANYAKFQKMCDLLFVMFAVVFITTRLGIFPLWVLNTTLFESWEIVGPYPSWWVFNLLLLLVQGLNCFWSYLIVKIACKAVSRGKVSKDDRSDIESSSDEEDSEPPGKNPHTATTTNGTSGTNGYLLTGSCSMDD
UniProt P49918: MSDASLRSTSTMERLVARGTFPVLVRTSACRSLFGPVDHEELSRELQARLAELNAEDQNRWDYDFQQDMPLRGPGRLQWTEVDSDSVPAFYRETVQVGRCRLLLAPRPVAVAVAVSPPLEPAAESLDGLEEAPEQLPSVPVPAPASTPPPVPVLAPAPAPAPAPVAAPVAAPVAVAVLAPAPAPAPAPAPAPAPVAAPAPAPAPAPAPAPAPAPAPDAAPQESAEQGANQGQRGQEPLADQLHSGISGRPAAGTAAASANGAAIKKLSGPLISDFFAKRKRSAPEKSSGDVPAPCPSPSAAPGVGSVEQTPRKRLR
UniProt Q9H444: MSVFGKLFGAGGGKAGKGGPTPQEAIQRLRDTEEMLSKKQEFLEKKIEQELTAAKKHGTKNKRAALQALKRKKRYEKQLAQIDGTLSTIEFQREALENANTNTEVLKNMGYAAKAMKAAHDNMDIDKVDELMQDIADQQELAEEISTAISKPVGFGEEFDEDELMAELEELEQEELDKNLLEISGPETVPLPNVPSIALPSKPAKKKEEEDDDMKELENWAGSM
UniProt Q6ZU80: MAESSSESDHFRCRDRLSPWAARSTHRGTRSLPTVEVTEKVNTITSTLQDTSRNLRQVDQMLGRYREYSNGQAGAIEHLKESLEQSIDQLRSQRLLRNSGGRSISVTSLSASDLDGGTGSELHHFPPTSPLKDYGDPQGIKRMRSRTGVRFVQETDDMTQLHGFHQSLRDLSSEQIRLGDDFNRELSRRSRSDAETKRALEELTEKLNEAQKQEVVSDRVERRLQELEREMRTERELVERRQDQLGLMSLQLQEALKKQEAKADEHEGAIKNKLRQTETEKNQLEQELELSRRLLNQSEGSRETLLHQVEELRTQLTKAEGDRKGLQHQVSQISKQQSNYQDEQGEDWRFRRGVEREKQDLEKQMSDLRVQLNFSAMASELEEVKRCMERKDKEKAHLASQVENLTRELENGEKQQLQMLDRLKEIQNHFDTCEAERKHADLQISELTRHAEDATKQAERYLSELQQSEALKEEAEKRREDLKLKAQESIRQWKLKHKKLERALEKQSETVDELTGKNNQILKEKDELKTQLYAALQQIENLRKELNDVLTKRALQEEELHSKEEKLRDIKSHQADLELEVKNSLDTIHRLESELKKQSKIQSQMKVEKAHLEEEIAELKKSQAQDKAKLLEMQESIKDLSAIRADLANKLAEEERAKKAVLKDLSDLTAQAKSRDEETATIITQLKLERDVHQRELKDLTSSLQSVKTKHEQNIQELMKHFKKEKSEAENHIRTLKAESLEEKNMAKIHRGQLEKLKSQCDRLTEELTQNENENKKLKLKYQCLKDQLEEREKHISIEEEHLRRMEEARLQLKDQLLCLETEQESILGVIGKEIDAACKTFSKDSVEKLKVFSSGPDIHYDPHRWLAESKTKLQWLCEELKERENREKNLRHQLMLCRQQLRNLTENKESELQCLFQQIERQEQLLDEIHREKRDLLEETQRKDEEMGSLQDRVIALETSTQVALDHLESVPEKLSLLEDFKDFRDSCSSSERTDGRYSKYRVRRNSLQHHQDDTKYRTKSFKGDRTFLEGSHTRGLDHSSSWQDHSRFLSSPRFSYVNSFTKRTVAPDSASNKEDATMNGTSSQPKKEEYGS
UniProt Q9Y6K0: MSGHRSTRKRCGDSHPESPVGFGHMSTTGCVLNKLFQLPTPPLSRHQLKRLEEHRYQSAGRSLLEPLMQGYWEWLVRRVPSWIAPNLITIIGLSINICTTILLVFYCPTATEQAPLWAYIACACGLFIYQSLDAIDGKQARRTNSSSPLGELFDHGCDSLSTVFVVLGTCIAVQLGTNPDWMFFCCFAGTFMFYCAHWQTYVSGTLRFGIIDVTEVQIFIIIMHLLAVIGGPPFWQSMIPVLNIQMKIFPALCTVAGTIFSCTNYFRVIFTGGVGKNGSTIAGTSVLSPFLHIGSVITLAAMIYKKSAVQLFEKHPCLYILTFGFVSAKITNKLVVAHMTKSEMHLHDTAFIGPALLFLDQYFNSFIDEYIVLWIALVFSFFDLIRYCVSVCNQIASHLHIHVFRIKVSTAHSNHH
UniProt Q00536: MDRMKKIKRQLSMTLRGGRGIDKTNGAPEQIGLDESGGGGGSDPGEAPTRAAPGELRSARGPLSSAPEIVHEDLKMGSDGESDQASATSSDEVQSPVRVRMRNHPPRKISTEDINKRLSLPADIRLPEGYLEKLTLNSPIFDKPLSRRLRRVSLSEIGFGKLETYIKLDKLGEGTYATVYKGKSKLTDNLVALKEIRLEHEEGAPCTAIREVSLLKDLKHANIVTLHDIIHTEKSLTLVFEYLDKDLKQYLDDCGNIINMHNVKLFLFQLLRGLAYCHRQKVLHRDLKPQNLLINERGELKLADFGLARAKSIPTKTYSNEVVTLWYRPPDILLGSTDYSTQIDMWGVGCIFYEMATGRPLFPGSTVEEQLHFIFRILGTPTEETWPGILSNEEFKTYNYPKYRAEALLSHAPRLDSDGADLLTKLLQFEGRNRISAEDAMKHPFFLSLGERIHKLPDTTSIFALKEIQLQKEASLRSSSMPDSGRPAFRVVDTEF
UniProt Q9BSY4: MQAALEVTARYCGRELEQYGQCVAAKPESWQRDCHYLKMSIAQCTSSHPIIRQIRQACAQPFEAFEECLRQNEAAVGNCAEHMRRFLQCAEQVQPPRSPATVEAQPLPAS
UniProt Q7L2Z9: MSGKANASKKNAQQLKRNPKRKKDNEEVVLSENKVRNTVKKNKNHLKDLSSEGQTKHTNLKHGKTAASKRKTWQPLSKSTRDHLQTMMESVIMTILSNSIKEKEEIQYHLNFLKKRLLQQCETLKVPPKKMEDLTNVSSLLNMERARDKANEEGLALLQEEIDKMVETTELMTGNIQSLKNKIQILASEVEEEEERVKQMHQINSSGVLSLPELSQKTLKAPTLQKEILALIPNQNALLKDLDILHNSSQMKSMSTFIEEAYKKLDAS

Assays:
Experiment in all cases: log2 fold change, soluble protein after heating vs DMSO (PISA); higher = thermal stabilisation; K562 cells, 10 uM, 30 min; active = over 0.2 and 3.5 SD of the protein, either way, in both replicates (recomputed)
[1] = compound: CS(=O)(=O)c1ccc(-c2cnc(N)c(C(=O)Nc3ccccc3)n2)cc1
Outline: (§1)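 Quantification of soluble protein used TMTpro 16plex LC-MS/MS, with channel sums equalised. Samples were the supernatant after 21,000xg for 90 min of pooled aliquots from K562 cells (2×10^6 cells/mL) treated with 10 μM compound for 30 min, heated for 3 min over 48°C-58°C, and extracted in PBS with 0.5% NP-40 at 4°C. Values, from duplicates, describe thermal stability against control samples on a log2 fold-change scale.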

crizotinib = compound: C[C@@H](Oc1cc(-c2cnn(C3CCNCC3)c2)cnc1N)c1c(Cl)ccc(F)c1Cl [crizotinib]
Outline: as §1

[2] = compound: C[C@@H]1COCCN1C2=NC(=NC(=C2)C3(CC3)S(=O)(=O)C)C4=C5C=CNC5=CC=C4
Outline: as §1

[3] = compound: C[C@H](C1=CC=C(C=C1)C(=O)NC2=C3C=CNC3=NC=C2)N
Outline: as §1

gandotinib = compound: Cc1cc(Nc2cc(CN3CCOCC3)c3nc(C)c(Cc4ccc(Cl)cc4F)n3n2)n[nH]1 [gandotinib]
Outline: as §1

[4] = compound: Cc1cc(SCc2sc(-c3ccc(C(F)(F)F)cc3)nc2C)ccc1OCC(=O)O
Outline: as §1

doramapimod = compound: Cc1ccc(-n2nc(C(C)(C)C)cc2NC(=O)Nc2ccc(OCCN3CCOCC3)c3ccccc23)cc1 [doramapimod]
Outline: as §1

ispinesib = compound: Cc1ccc(C(=O)N(CCCN)[C@@H](c2nc3cc(Cl)ccc3c(=O)n2Cc2ccccc2)C(C)C)cc1 [ispinesib]
Outline: as §1

bafetinib = compound: Cc1ccc(NC(=O)c2ccc(CN3CC[C@H](N(C)C)C3)c(C(F)(F)F)c2)cc1Nc1nccc(-c2cncnc2)n1 [bafetinib]
Outline: as §1

[5] = compound: Cc1cccc(CC(=O)N2CCc3c2ccc(-c2cn(C)c4ncnc(N)c24)c3F)n1
Outline: as §1

nilotinib = compound: Cc1cn(-c2cc(NC(=O)c3ccc(C)c(Nc4nccc(-c5cccnc5)n4)c3)cc(C(F)(F)F)c2)cn1 [nilotinib]
Outline: as §1

[6] = compound: Cc1nc(Nc2n[nH]c3c2CN(C(=O)N[C@H](CN(C)C)c2ccccc2)C3(C)C)c2sccc2n1
Outline: as §1

dasatinib = compound: Cc1nc(Nc2ncc(C(=O)Nc3c(C)cccc3Cl)s2)cc(N2CCN(CCO)CC2)n1 [dasatinib]
Outline: as §1

[7] = compound: Cc1ncc(-c2ccnc(Nc3ccc(S(C)(=O)=O)cc3)n2)n1C(C)C
Outline: as §1

[8] = compound: Cn1cc(-c2ccc3c(c2)CCN3C(=O)Cc2cccc(C(F)(F)F)c2)c2c(N)ncnc21
Outline: as §1

[9] = compound: Cn1cc(-c2ccc3nnc(C(F)(F)c4ccc5ncccc5c4)n3n2)cn1
Outline: as §1

tipifarnib = compound: Cn1cncc1[C@@](N)(c1ccc(Cl)cc1)c1ccc2c(c1)c(-c1cccc(Cl)c1)cc(=O)n2C [tipifarnib]
Outline: as §1

mubritinib = compound: FC(F)(F)c1ccc(/C=C/c2nc(COc3ccc(CCCCn4ccnn4)cc3)co2)cc1 [mubritinib]
Outline: as §1

duvelisib = compound: C[C@H](Nc1ncnc2nc[nH]c12)c1cc2cccc(Cl)c2c(=O)n1-c1ccccc1 [duvelisib]
Outline: as §1

tozasertib = compound: Cc1cc(Nc2cc(N3CCN(C)CC3)nc(Sc3ccc(NC(=O)C4CC4)cc3)n2)n[nH]1 [tozasertib]
Outline: as §1

Target	log2 fold change [1]	log2 fold change (crizotinib)	log2 fold change [2]	log2 fold change [3]	log2 fold change (gandotinib)	log2 fold change [4]	log2 fold change (doramapimod)	log2 fold change (ispinesib)	log2 fold change (bafetinib)	log2 fold change [5]	log2 fold change (nilotinib)	log2 fold change [6]	log2 fold change (dasatinib)	log2 fold change [7]	log2 fold change [8]	log2 fold change [9]	log2 fold change (tipifarnib)	log2 fold change (mubritinib)	log2 fold change (duvelisib)	log2 fold change (tozasertib)
CERT isoform 3 (UniProt Q9Y5P4)	inactive: 0.015	inactive: 0.102	inactive: 0.079	active: -0.327	inactive: 0.209	inactive: -0.047	inactive: 0.192	inactive: 0.109	inactive: 0.032	inactive: -0.08	inactive: 0.193	active: -0.397	inactive: 0.019	inactive: -0.11	inactive: 0.109	inactive: 0.021	inactive: 0.111	inactive: 0.117		
CENPE (UniProt Q02224)	inactive: 0.231	inactive: -0.018		inactive: -0.908	inactive: 0.052	inactive: 0.24	inactive: 0.108	inactive: -0.321	inactive: 0.143	inactive: 0.069			inactive: -0.35		inactive: 0.14	inactive: -0.123	inactive: -0.033			
CDK8 (UniProt P49336)	inactive: -0.049	inactive: -0.029	inactive: 0.033	inactive: 0.248	inactive: -0.13	inactive: 0.155	active: 0.425	inactive: 0.031	inactive: 0.109	inactive: 0.014			inactive: 0.067		inactive: 0.057	inactive: 0.018	inactive: 0	inactive: 0.01		
CDK2AP1 (UniProt O14519)	inactive: -0.058		inactive: 0.153		inactive: -0.111			inactive: 0.104	inactive: 0.112	inactive: 0.031	inactive: 0.071	inactive: -0.028		inactive: -0.085		inactive: 0.065	inactive: 0.029	inactive: 0.032		
CERS6 isoform 2 (UniProt Q6ZMG9)	inactive: -0.051		inactive: 0.045	inactive: -0.24	inactive: -0.011	inactive: 0.048			inactive: 0.011	inactive: 0.079	inactive: -0.122	inactive: -0.029	inactive: 0.006	inactive: 0.026	inactive: 0.085		inactive: -0.037	inactive: -0.017	inactive: 0	inactive: -0.029
CEP41 (UniProt Q9BYV8)	inactive: 0.129	inactive: -0.265					inactive: 0.136													
CHD5 (UniProt Q8TDI0)	inactive: -0.126		inactive: 0.106	inactive: 0.017	inactive: 0.091	inactive: 0.152		inactive: -0.108	inactive: -0.076	inactive: -0.013	inactive: -0.096	inactive: -0.053	inactive: -0.237	inactive: -0.063	inactive: -0.033	inactive: -0.012	inactive: 0.06	inactive: 0.045	inactive: -0.013	inactive: 0.228
CDKN1C (UniProt P49918)	inactive: 0.043		inactive: -0.014		inactive: -0.186	inactive: -0.014		inactive: 0.192	inactive: 0.006	inactive: -0.172			inactive: 0.162			inactive: 0.066		inactive: 0.356	inactive: -0.028	
CHMP4B (UniProt Q9H444)	inactive: -0.067	inactive: -0.036	inactive: -0.011	inactive: -0.022	inactive: -0.075	inactive: -0.014	inactive: 0.005	inactive: -0.008	inactive: -0.078	inactive: 0.061	inactive: -0.027	inactive: 0.007	inactive: 0.017	inactive: -0.023	inactive: 0.012	inactive: -0.013	inactive: 0.053	inactive: 0.051		
CEP128 (UniProt Q6ZU80)	inactive: 0.093	inactive: 0.056		inactive: 0.157		inactive: -0.07	inactive: 0.102		inactive: -0.186				inactive: 0.046		inactive: -0.026		inactive: -0.016	inactive: 0.143		
CEPT1 (UniProt Q9Y6K0)	inactive: 0.055	inactive: -0.226	inactive: 0.146	inactive: 0.042	inactive: -0.268	inactive: 0.047	inactive: 0.021	inactive: -0.214	inactive: -0.048	inactive: 0.032	inactive: -0.052	inactive: 0.156	inactive: -0.008	inactive: 0.044	inactive: 0.031	inactive: -0.014	inactive: -0.055	inactive: -0.012		
CDK16 isoform 2 (UniProt Q00536)	inactive: 0.03	inactive: -0.036	inactive: 0.06	inactive: -0.07	active: 0.436	inactive: 0.096	inactive: -0.022	inactive: -0.046	inactive: 0.038	inactive: -0.047	inactive: 0.013	active: 0.619	inactive: 0	active: 0.679	inactive: -0.014	inactive: 0.013	inactive: -0.072	inactive: 0.035		
CHCHD5 (UniProt Q9BSY4)	inactive: -0.082	inactive: -0.084		inactive: 0.093			inactive: 0.145	inactive: 0.172	inactive: -0.173		inactive: 0.141	inactive: -0.186		inactive: -0.011	inactive: 0.074	inactive: 0.153	inactive: 0.278	inactive: -0.039		
CDK2 (UniProt P24941)	inactive: 0.003	inactive: -0.018	inactive: 0.055		inactive: -0.002	inactive: 0.009	inactive: -0.048	inactive: 0.002	inactive: -0.038	inactive: -0.019	inactive: -0.006		inactive: 0.052		inactive: 0	inactive: -0.002	inactive: 0	inactive: 0.039	inactive: 0.013	inactive: -0.051
CENPQ (UniProt Q7L2Z9)	inactive: -0.025		inactive: 0.149	inactive: 0.155		inactive: -0.083					inactive: -0.074	inactive: -0.026	inactive: 0.001	inactive: 0.128	inactive: -0.117			inactive: -0.074	inactive: 0.159	inactive: -0.025
CDK17 isoform 2 (UniProt Q00537)	inactive: 0.087	inactive: -0.082	inactive: -0.035	inactive: 0.076	inactive: 0.057	inactive: 0.126	inactive: 0.028		inactive: 0.117	inactive: 0.039			inactive: -0.171		inactive: -0.07		inactive: 0.037	inactive: -0.04		
CEP170B (UniProt Q9Y4F5)	inactive: 0.009	inactive: -0.199	inactive: -0.12		inactive: 0.263	inactive: -0.021	inactive: 0.268	inactive: -0.016	inactive: 0.01	inactive: -0.077			inactive: -0.001			inactive: 0.064		inactive: -0.104	inactive: -0.084	

Single entries from the entries so far:
Value of CENPE (UniProt Q02224) under log2 fold change [3]: inactive: -0.908
Value of CEP170B (UniProt Q9Y4F5) under log2 fold change [9]: inactive: 0.064
